Data published in PMC10693084, “Novel 8-Methoxycoumarin-3-Carboxamides with potent anticancer activity against liver cancer via targeting caspase-3/7 and β-tubulin polymerization” (BMC Chemistry, 2023).

Tested on: human liver carcinoma HepG2 cells
Assay: MTT cytotoxicity assay against HepG2 cells
Type: cell-based
Details: 24 h treatment
Description: To assess the antitumor properties of these compounds, we utilized the 3-(4,5-dimethylthiazol-2-yl)-2,5-diphenyl tetrazolium bromide (MTT) colorimetric assay, a widely used method to evaluate cell viability and cytotoxicity.
Following the incubation period, the cells were subjected to various concentrations of the prepared molecules and subsequently incubated for a duration of 24 h. […] Subsequently, a volume of 100 μL of dimethyl sulfoxide (DMSO) was introduced into each well in order to facilitate the dissolution of the purple formazan that had been generated. The quantification of the color intensity of the formazan product, which serves as an indicator of the cellular growth condition, is performed by employing an ELISA plate reader set at a wavelength of 570 nm. The experimental conditions were implemented with a minimum of three replicates, and the experiments were conducted on at least three separate occasions.

CN[C@@H]1C[C@H]2O[C@@](C)([C@@H]1OC)n1c3ccccc3c3c4c(c5c6ccccc6n2c5c31)C(=O)NC4 [STU, staurosporine, reference compound]
IC50: 8.4 ± 0.51 µM
